Measured values: patent US10329317B2, “Quinoline derivative for use in the treatment and prevention of viral infections” (ABIVAX, priority 2015, dated 2019)
For some assays here: At least one read-out could not be matched to a standard name with certainty. For some assays here: At least one compound was matched to its structure with a doubt left.

Assays:
[1] = First-in-man PK: compound (1) plasma levels after single oral ascending dose of compound (2); assay type: in vivo, human; details: post-dose, across dose levels 50 to 200 mg compound (2)
Experimental: The present document details the pharmacokinetic (PK) results obtained in a first-in-man study with compound (2) consisting in a single oral ascending dose in healthy male subjects. Four (4) dose levels were investigated (50, 100, 150, and 200 mg).
At each dose level, 6 subjects were included and received a single oral dose of compound (2) so that a total of 24 subjects participated to the study and completed it. No study deviation was identified at the time of the PK analysis and thus, all subjects were included in the PK analysis.
In this study, plasma levels of compound (1) were measured.
PK blood sampling was initially defined up to 48 h post-dose. […]
Plasma concentrations were processed throughout the PK software for PK data generation. The PK parameters were calculated by non-compartmental analysis (NCA), using Phoenix® WinNonlin® (Pharsight Corporation) running on a personal computer.
For the calculation of the PK parameters and characteristics the following rules were applied: • All the plasma concentrations validated provided to the pharmacokineticist were used for the PK analysis. • The actual blood sampling time points related to the preceding administration was used. • At time points in the lag-time between time zero and the first concentration equal or above limit of quantification (LOQ), concentrations below LOQ were set to zero (0). […]

[2] = target: T1, Recombinant human CBC with capped RNA substrate (Homo sapiens, UniProt P52298+Q09161); experiment: Gel-mobility shift assay of CBC binding to capped RNA; details: Compound 1 5-100 μM, Compound 2 5-50 μM, m7GpppG 12 mM
T1 construct: made in house
T1 sequence (Q09161 20-790 limits assumed): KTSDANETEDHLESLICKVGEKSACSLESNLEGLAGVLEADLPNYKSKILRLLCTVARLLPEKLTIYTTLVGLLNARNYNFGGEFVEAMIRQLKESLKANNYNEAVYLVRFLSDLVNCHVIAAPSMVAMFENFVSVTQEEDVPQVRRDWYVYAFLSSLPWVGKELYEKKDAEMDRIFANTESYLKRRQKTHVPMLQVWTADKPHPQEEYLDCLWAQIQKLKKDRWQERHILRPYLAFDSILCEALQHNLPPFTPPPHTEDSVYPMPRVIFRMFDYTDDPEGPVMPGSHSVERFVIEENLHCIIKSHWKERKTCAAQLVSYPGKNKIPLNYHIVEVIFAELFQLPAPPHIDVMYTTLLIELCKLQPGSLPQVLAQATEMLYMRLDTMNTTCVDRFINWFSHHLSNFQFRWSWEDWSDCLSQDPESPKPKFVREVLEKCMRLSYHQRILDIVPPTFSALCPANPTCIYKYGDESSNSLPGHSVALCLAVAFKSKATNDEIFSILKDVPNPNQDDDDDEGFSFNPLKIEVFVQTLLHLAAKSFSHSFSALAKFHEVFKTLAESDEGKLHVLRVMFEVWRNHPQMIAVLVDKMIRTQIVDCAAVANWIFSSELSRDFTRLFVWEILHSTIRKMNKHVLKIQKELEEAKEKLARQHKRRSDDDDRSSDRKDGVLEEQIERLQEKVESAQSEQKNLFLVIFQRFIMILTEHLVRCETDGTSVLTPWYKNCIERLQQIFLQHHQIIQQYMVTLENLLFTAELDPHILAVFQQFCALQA
T1 sequence (P52298 1-156): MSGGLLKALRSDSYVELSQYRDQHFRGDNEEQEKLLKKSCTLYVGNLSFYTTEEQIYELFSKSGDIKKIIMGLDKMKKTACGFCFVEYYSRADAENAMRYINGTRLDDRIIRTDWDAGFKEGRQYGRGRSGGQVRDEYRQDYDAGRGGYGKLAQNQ
Experimental: FIG. 1B. […] Recombinant human CBC was incubated with a capped RNA substrate and analyzed by native gel electrophoresis in order to resolve the different RNA and RNA-protein complexes: free RNA (lane 1), and CBC-RNA complexes (lanes 2-10) in the presence of 12 mM of m7GppG (lanes 10) or 5 μM, 10 μM or 50 μM of Compound 2 (lanes 2-5, respectively) and 5 μM, 10 μM, 50 μM or 100 μM of Compound 1 (lanes 6-9, respectively).
Recombinant human CBC was incubated with a capped RNA substrate in the presence of increasing concentrations of compound 1 or compound 2 or a m(7)GpppG cap analogue and analyzed by native gel electrophoresis in order to resolve the different RNA and RNA-protein complexes according to Mazza et al. (Large-scale induced fit recognition of an m(7)GpppG cap analogue by the human nuclear cap-binding complex. EMBO J. 21, 5548-5557 (2002).

## O=C(O)[C@H]1O[C@@H](N(c2ccc(OC(F)(F)F)cc2)c2ccc3cccc(Cl)c3n2)[C@H](O)[C@@H](O)[C@@H]1O [Compound 1, N-β-glucuronide of 8-chloro-N-(4-(trifluoromethoxy)phenyl)quinolin-2-amine]
[1]
  time of Cmax (tmax): ~4 h
[2]
  competition of the complex between CBC and capped RNA: no competition
